We go through 2 molecules from patent US4242261A, “Production of methylene-cycloamines” (A. H. Robins Company, Inc., priority 1979, dated 1980).

Molecules are shown by their SMILES. “And” between values parts separate entries of the source, which are not always exact repeats. Identical values can stand only once.

The test system of this data set is Tetrabenazine-Induced Ptosis. As to the kind of experiment: Blockade of Tetrabenazine-Induced Ptosis in Mice (antidepressant activity). The format is in vivo, mice (ICR-DUB strain). Particulars: slope function of the ED50 determination (Litchfield and Wilcoxon); IP; Table 1. The method, then:
Thirty minutes later the presence or absence of complete eyelid closure (ptosis) is assessed in each animal. For compounds which produced blockage of ptosis in all animals, and ED50 value is obtained using a minimum of three geometrically spaced dosages with five mice/dose.

Consider `CN(C)CCCN1c2ccccc2CCc2ccccc21` [imipramine], for which the slope is 2.6 and 2.5 and 2.3.
Molecule `CCOc1ccccc1OCC1CNCCO1` (centres unmarked) [viloxazine] came in with a slope of 2.5.
